Experimental findings from paper PMC7862700 are described below.

Chains of the proteins cited; added tags and fusions are not shown. Lines headed by an entry give the natural chain unless they say otherwise; changes in a name come on top.
UniProt P41161: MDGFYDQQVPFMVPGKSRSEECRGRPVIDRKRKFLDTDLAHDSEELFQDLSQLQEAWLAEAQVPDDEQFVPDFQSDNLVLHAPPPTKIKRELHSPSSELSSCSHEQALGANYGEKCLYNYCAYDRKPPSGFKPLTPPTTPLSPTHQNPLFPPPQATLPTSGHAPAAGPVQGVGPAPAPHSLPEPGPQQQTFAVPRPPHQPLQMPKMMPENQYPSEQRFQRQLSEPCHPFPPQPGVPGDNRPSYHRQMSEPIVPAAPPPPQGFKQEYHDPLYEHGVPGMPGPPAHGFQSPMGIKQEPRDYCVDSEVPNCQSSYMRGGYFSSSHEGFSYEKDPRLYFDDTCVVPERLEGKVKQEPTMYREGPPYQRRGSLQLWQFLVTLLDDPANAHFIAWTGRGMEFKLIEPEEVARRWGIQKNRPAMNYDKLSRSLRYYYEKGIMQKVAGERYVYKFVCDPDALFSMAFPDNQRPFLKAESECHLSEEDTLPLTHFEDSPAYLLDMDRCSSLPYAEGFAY
UniProt Q99607: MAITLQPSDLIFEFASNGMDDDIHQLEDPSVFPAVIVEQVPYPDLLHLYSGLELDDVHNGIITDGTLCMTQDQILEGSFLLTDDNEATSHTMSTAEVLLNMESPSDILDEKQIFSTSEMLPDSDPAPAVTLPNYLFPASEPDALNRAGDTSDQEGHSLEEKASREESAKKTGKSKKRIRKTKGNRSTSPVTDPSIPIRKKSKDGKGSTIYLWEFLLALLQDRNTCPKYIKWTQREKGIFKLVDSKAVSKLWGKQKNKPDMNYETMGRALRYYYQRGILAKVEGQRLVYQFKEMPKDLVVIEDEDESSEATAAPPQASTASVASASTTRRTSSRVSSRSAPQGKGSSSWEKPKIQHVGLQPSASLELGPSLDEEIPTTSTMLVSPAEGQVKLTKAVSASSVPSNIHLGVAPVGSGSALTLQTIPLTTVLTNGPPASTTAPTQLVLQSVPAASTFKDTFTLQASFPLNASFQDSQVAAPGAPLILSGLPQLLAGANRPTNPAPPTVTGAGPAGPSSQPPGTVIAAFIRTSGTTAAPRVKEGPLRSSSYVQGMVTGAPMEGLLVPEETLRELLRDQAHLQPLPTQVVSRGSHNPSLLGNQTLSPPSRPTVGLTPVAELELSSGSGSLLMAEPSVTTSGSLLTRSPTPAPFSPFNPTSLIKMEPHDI

This is a selection; strong and weak results do not stand in their true shares. At the low end of the ranking the order means little.

For one assay, the target named is ETV5 (UniProt P41161). Description: DAPPL (digital affinity profiling via proximity ligation, sequencing). The settings on record: 10 mM Tris-HCl pH 7.5, 50 mM NaCl, 1 mM DTT, 4% glycerol, room temperature, 30 min; GST-TFs on glutathione beads, 16-mer random dsDNA library, 0.1% …; high values mean tight binding; double strand, one strand shown; scale: fold enrichment (6-mer frequency, TF over GST control).
As for GCAGCG, the binding signal stood at 0.851.
The same measure, in the same setting: for GACGGA the value was 0.554; for ACGCAA, 0.92; for GGCCGT, 0.365.
The same measure, in the same setting: for TGGGAG the value was 0.431; for GGAGCC, 0.343; for AGAGCC, 0.7.
Still for that read-out and setting: for GGGCAC the value was 0.834; for GGCAAC, 0.926.
Sequence CAAGGA had a binding signal of 0.753.
With GGAGCA, the binding signal was determined as 0.48.
On the same count and under the same terms, for GGCATG the value was 0.801.
On the same count and under the same terms, for GACGCG the value was 0.607; for GTCGCT, 0.881.
On the same count and under the same terms, for GGGGCG the value was 0.666; for GGCACA, 0.844.
As for GGTCGT, the binding signal was found to be 0.648.
The same measure, in the same setting: for TAGGAG the value was 0.404; for GTGGCG, 0.841.
Same read-out and setting: for CAGAGC the value was 0.854.
Same read-out and setting: for ATGGAG the value was 0.582.
For the sequence CGTAGT, the binding signal was 0.802.
Same read-out and setting: for AACAGT the value was 0.686; for GGGGCC, 0.549; for CGCAGC, 0.833.
Still for that read-out and setting: for CTGAGT the value was 0.63; for CAGGTT, 0.665; for CAGTGT, 0.707.
The sequence TGTGTA returned a binding signal of 0.912.
On the same count and under the same terms, for CGGTGA the value was 0.462; for AAGGAC, 0.816.
GAAGAC: the binding signal worked out at 0.896.
AGGTCG yielded a binding signal of 0.528.
Sequence GAGCGC registered a binding signal of 0.572.
Same read-out and setting: for GAGTTA the value was 0.624.
Turning to TAGGAC, the binding signal stood at 0.917.
Same read-out and setting: for AGGAGC the value was 0.411.
Turning to CAGCGT, the binding signal is 0.785.

A further assay addresses ELF4 (UniProt Q99607). The description is as above. The settings on record: 10 mM Tris-HCl pH 7.5, 50 mM NaCl, 1 mM DTT, 4% glycerol, room temperature, 30 min; GST-TFs on glutathione beads, 16-mer random dsDNA library, 0.1% …; high values mean tight binding; double strand, one strand shown; scale: fold enrichment (6-mer frequency, TF over GST control).
Take GCAGCG: the binding signal was determined as 0.796.
With GACGGA, the binding signal turned out to be 0.457.
Same read-out and setting: for ACGCAA the value was 0.925; for GGCCGT, 0.435; for TGGGAG, 0.432.
In turn, GGAGCC came in with a binding signal of 0.333.
The same measure, in the same setting: for AGAGCC the value was 0.748; for GGGCAC, 0.806; for GGCAAC, 0.907.
Same read-out and setting: for CAAGGA the value was 0.697; for GGAGCA, 0.463; for GGCATG, 0.879.
Still for that read-out and setting: for GACGCG the value was 0.639; for GTCGCT, 0.735; for GGGGCG, 0.653.
In turn, GGCACA displayed a binding signal of 0.863.
Same read-out and setting: for GGTCGT the value was 0.64; for TAGGAG, 0.387; for GTGGCG, 0.794.
Same read-out and setting: for CAGAGC the value was 0.896.
On the same count and under the same terms, for ATGGAG the value was 0.581.
Sequence CGTAGT displayed a binding signal of 0.88.
On the same count and under the same terms, for AACAGT the value was 0.66; for GGGGCC, 0.613.
Still for that read-out and setting: for CGCAGC the value was 0.803; for CTGAGT, 0.627.
The same measure, in the same setting: for CAGGTT the value was 0.683; for CAGTGT, 0.722; for TGTGTA, 0.835.
Consider CGGTGA, for which the binding signal was 0.463.
Still for that read-out and setting: for AAGGAC the value was 0.806; for GAAGAC, 0.887.
In the case of AGGTCG, the binding signal turned out to be 0.532.
On the same count and under the same terms, for GAGCGC the value was 0.625; for GAGTTA, 0.557; for TAGGAC, 0.891.
Same read-out and setting: for AGGAGC the value was 0.397.
On the same count and under the same terms, for CAGCGT the value was 0.863.

The next assay addresses T1, ETV2 (UniProt O00321).
T1 sequence: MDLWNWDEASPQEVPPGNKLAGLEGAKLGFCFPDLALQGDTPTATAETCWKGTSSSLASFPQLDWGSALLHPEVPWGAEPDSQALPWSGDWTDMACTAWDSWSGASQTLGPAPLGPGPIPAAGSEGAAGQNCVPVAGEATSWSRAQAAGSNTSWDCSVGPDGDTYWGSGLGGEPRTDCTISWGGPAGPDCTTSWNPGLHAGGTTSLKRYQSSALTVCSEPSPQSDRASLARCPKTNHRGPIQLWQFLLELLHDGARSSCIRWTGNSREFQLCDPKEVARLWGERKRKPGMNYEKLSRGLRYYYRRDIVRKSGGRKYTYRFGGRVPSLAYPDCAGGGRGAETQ
The description is as above. The settings on record: 10 mM Tris-HCl pH 7.5, 50 mM NaCl, 1 mM DTT, 4% glycerol, room temperature, 30 min; GST-TFs on glutathione beads, 16-mer random dsDNA library, 0.1% …; high values mean tight binding; double strand, one strand shown; scale: fold enrichment (6-mer frequency, TF over GST control).
In turn, GCAGCG registered a binding signal of 0.827.
Still for that read-out and setting: for GACGGA the value was 0.517; for ACGCAA, 0.871.
Still for that read-out and setting: for GGCCGT the value was 0.391; for TGGGAG, 0.457.
Turning to GGAGCC, the binding signal was determined as 0.338.
With AGAGCC, the binding signal was determined as 0.693.
Still for that read-out and setting: for GGGCAC the value was 0.82; for GGCAAC, 0.874; for CAAGGA, 0.763.
The same measure, in the same setting: for GGAGCA the value was 0.375; for GGCATG, 0.942; for GACGCG, 0.745.
On the same count and under the same terms, for GTCGCT the value was 0.663; for GGGGCG, 0.717.
GGCACA displayed a binding signal of 0.798.
On the same count and under the same terms, for GGTCGT the value was 0.692; for TAGGAG, 0.4.
Same read-out and setting: for GTGGCG the value was 0.83; for CAGAGC, 0.866; for ATGGAG, 0.498.
Same read-out and setting: for CGTAGT the value was 0.753; for AACAGT, 0.736.
The sequence GGGGCC returned a binding signal of 0.503.
As to CGCAGC, the binding signal worked out at 0.797.
In turn, CTGAGT showed a binding signal of 0.594.
On to CAGGTT, for which the binding signal was found to be 0.738.
On the same count and under the same terms, for CAGTGT the value was 0.693; for TGTGTA, 0.765.
In turn, CGGTGA gave a binding signal of 0.434.
Still for that read-out and setting: for AAGGAC the value was 0.843; for GAAGAC, 0.837; for AGGTCG, 0.601.
Same read-out and setting: for GAGCGC the value was 0.599; for GAGTTA, 0.554.
As to TAGGAC, the binding signal turned out to be 0.881.
On the same count and under the same terms, for AGGAGC the value was 0.329; for CAGCGT, 0.754.
